Reference: patent US12150926B2 (SICHUAN JIUZHANG BIOLOGICAL SCIENCE AND TECHNOLOGY CO., LTD., priority 2018, dated 2024)
Some entries share one result that the patent states for a list of compounds.

Columns and labels:
[1] = system: transplanted tumor in S180 sarcoma-bearing KM mice; assay: In vivo inhibitory effect of chlorogenic acid on S180 sarcoma transplantation in KM mice (Experimental example 1); design: species or system mouse; details: once a day, from tumor weight vs negative group
Description: (§1) KM mice, half male and half female, weighing 17-24 g.
S180 cell lines were mouse sarcoma cells, and suspendedly grew in DH medium, containing 20% calf serum, 1 mmol/L glutamine, 100 U·ml^−1 penicillin, and 100 μg·ml^−1 streptomycin, then cultured in 37° C. 5% CO2, saturated humidity incubator. The medium was changed every 2-3 days for passage.
S180 cells in the logarithmic growth phase were harvested, centrifuged at 1000 rpm for 5 min, washed twice, and the number of viable cells was counted by trypan blue staining. The cells were inoculated into the abdominal cavity of KM mice as soon as possible, and these mice were used as breeding mice. 2) In vivo experiment The ascites was extracted from 7 to 10 days, and the number of cells was adjusted to (about 1×10^6 cells) after dilution. The cell suspension in ascites was inoculated subcutaneously in the axillary of the left forelimb of the mice at 0.2 ml/animal.
Negative group: intraperitoneally injected, once a day, receiving an equal volume of normal saline. On the 5th day after inoculation, the tumor volume was measured (V=0.52×L (the long diameter of the transplanted tumor)×W^2 (the shortest diameter of the transplanted tumor)), and the mice were weighed every three days. The experiment was terminated when the average tumor size in the negative group was more than 1 g (the tumor volume was about […]). The mice were sacrificed by cervical vertebra luxation and weighed, the tumor was removed, and the tumor inhibitory rate was calculated. Tumor inhibitory rate %=[1−(average tumor weight in drug group/average tumor weight in negative group)]×100%.

[2] = system: transplanted tumor in S180 sarcoma-bearing KM mice; assay: In vivo inhibitory effect of chlorogenic acid composition on S180 sarcoma transplantation in KM mice (Experimental example 2); design: species or system mouse; details: intraperitoneally, once a day, from tumor weight vs negative group
Description: S180 sarcoma transplantation in KM mice
as §1
S180 cell lines were mouse sarcoma cells, and suspendedly grew in DH medium, containing 20% calf serum, 1 mmol/L glutamine, 100 U·ml^−1 penicillin, and 100 μg·ml^−1 streptomycin, then cultured in 37° C., 5% CO2, saturated humidity incubator. The medium was changed every 2-3 days for passage.
S180 cells in the logarithmic growth phase were harvested, centrifuged at 1000 rpm for 5 min, washed twice, and the number of viable cells was counted by trypan blue staining. The cells were inoculated into the abdominal cavity of KM mice as soon as possible, and these mice were used as breeding mice.
The ascites was extracted from 7 to 10 days, and the number of cells was adjusted to (about 1×10^6 cells) after dilution. The cell suspension in ascites was inoculated subcutaneously in the axillary of the left forelimb of the mice at 0.2 ml/animal. […] Coumaroylquinic acid group: intraperitoneally injected, once a day, at a dose of 30 mg·kg^−1. […]
On the 5th day after inoculation, the tumor volume was measured (V=0.52×L (the long diameter of the transplanted tumor)×W^2 (the shortest diameter of the transplanted tumor)), and the mice were weighed every three days. […] The mice were sacrificed by cervical vertebra luxation and weighed, the tumor was removed, and the tumor inhibitory rate was calculated. […]

SMILES | Tumor inhibiton rate ([1]; local administration: s.c. peri-lesion, 30 mg/kg, listed as chlorogenic acid, 30 mg/kg) | Tumor inhibiton rate ([1]; systemic administration: intravenously, 30 mg/kg, listed as chlorogenic acid, 30 mg/kg) | Tumor inhibition rate ([2]; 30 mg/kg, listed as chlorogenic acid, 30 mg/kg) | Tumor inhibiton rate ([1]; intraperitoneally, 2 mg/kg, 2 mg/kg) | Tumor inhibition rate ([2]; 2 mg/kg, 2 mg/kg)
O=C(/C=C/c1ccc(O)c(O)c1)O[C@@H]1C[C@](O)(C(=O)O)C[C@@H](O)[C@H]1O [Chlorogenic acid] | higher than 40% | higher than 40% | higher than 45% | – | –
COc1cccc2c1C(=O)c1c(O)c3c(c(O)c1C2=O)C[C@@](O)(C(=O)CO)C[C@@H]3O[C@H]1C[C@H](N)[C@H](O)[C@H](C)O1 [ADM, adriamycin, reference compound] | – | – | – | higher than 40% | higher than 45%
